Source: publication PMC9570212, “PAUF Induces Migration of Human Pancreatic Cancer Cells Exclusively via the TLR4/MyD88/NF-κB Signaling Pathway” (International Journal of Molecular Sciences, 2022)
No constants are given. Whether binding was seen depends on the method and setting. In cells and extracts the contact can be indirect. Some binding calls cover weakened binding; strength is not graded here.

Amino acid sequences for entries named in this document (tags omitted). Residues count along the entry.
UniProt Q99836: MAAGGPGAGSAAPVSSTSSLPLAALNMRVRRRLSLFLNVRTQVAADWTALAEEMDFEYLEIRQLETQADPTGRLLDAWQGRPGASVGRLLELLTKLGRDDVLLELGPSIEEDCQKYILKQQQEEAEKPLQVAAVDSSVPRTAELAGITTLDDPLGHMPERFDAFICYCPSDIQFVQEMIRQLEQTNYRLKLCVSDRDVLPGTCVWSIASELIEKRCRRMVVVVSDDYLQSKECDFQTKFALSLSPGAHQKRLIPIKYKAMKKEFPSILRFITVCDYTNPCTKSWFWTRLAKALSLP
UniProt O00206, residues 24-839: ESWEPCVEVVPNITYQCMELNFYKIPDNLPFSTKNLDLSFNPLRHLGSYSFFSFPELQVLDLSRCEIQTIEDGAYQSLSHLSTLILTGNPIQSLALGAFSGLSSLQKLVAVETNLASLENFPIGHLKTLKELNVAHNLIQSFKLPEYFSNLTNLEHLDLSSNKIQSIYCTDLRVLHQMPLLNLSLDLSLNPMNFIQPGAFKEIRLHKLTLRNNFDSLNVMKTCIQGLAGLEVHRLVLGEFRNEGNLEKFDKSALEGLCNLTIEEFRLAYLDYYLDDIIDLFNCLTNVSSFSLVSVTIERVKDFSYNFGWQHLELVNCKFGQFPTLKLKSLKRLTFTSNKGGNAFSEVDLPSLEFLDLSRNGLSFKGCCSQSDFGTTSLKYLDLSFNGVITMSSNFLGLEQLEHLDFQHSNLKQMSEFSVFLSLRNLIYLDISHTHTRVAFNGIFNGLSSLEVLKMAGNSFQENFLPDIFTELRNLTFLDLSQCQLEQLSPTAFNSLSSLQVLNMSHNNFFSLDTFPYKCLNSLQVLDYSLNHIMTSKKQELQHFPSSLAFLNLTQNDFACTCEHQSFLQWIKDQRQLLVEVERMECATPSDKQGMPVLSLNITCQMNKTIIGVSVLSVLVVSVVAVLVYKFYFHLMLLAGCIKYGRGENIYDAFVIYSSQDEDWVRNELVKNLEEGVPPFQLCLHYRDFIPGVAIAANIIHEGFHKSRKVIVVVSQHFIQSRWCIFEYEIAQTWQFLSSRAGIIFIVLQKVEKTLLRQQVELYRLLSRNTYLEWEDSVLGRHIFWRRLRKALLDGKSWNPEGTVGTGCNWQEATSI

Legend:
[1] = target: MyD88 (human (endogenous in Panc-1)) (UniProt Q99836); assay: co-IP; Panc-1_Mock and Panc-1_TLR4^OE cells treated with rPAUF (0.1 µg/mL) for 0-120 min; 200 µg lysate protein in IP lysis buffer precipitated with anti-MyD88 or anti-TRIF antibody and protein A agarose; Western blot against TLR4 and MyD88/TRIF
[2] = target: human TLR4 overexpressed in Panc-1 cells (Panc-1_TLR4^OE) (human) (UniProt O00206); assay: cross-linking; Panc-1_Mock and Panc-1_TLR4^OE cells incubated with or without rPAUF for 15 min at 37 °C, then membrane-impermeable crosslinker BS3 (2.5 mM) 30 min at room temperature; lysis, SDS-PAGE, Western blot with anti-human TLR4; only the binder purified
[3] = target: human TLR4 overexpressed in Panc-1 cells (Panc-1_TLR4^OE) (human) (UniProt O00206); assay: proximity ligation; Panc-1_Mock and Panc-1_TLR4^OE cells on coverslips treated with PBS or rPAUF (2 µg/mL) at 4 °C for 30 min, BS3 (2.5 mM) at 4 °C for 45 min, fixed; primary antibodies against PAUF and human TLR4, Duolink PLA probes; only the binder purified

| binding [1] | binding [2] | binding [3] | Molecule |
| --- | --- | --- | --- |
| binds |  |  | human TLR4 overexpressed in Panc-1 cells (Panc-1_TLR4^OE) (from UniProt O00206 24-839) (receptor) |
|  | binds | binds | recombinant pancreatic adenocarcinoma up-regulated factor (PAUF) (ligand, UniProt Q96DA0 17-172, looked up) GKMYGPGGGKYFSTTEDYDHEITGLRVSVGLLLVKSVQVKLGDSWDVKLGALGGNTQEVTLQPGEYITKVFVAFQAFLRGMVMYTSKDRYFYFGKLDGQISSAYPSQEGQVLVGIYGQYQLLGIKSIGFEWNYPLEEPTTEPPVNLTYSANSPVGR |
